From article doi:10.1101/2025.04.06.647449
No constants are given. Whether binding was seen depends on the method and setting. A result given as binding can be weak or reduced; the word gives no strength.

Target: Mlla HNH-APAZ (Myxococcus llanfairpwllgwyngyllgogerychwyrndrobwllllantysiliogogogochensis)
Assay: SEC-MALS

Substance: MllaAgo (from UniProt A0A540WXI1)
- binding: binds
